No constants are given. Whether binding was seen depends on the method and setting. In cells and extracts the contact can be indirect.
Target: CAR in extracts of HeLaCx43 cells (human (endogenous in HeLa)) (UniProt P78310)
Experiment: co-IP; CAR precipitated by 20 μg IgG of rabbit 80 (anti-CAR) coupled to agarose beads from 7 mg of protein of HeLaCx43 cells solubilized in 1% Chaps/TBS/5% glycerol pH 7.4; blot with anti-Cx43

By UniProt entry, the sequences of proteins in these tests, tags left out. Residues count along the entry.
UniProt P78310, residues 20-365: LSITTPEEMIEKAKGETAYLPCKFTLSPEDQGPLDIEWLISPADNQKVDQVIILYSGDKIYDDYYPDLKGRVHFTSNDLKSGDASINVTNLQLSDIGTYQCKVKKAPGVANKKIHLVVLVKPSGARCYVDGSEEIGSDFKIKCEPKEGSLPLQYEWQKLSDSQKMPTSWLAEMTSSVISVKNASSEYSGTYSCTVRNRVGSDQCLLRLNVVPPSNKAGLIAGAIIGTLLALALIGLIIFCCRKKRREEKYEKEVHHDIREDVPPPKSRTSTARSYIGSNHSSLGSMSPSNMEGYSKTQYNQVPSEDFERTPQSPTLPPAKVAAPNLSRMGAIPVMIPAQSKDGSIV
UniProt P23242: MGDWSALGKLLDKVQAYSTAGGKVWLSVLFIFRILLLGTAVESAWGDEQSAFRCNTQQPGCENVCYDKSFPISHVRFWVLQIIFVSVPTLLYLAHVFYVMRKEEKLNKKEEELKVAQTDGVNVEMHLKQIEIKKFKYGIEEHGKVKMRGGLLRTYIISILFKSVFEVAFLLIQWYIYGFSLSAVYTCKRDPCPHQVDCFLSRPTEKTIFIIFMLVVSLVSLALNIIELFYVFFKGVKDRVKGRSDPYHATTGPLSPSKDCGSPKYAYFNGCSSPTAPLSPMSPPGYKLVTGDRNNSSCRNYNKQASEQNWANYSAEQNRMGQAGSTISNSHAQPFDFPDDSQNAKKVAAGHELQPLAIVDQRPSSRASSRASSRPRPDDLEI

With “connexin43 stably expressed in HeLa cells (from UniProt P23242 1-382)” the binding was “no binding”.
